PubChem BioAssay AID504784 – Drosophila RNAi Screening Center – 2011
Test: 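Search for regulators of lipid droplet storage in oleate-fed fly cells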 (primary screen). System: Drosophila Kc167 embryonic cells. Knock-down reagent: long dsRNA against Drosophila genes, about 250 ng dsRNA per well. Time to read-out: 4 days. Treatment: cells fed 400 µM oleic acid bound to BSA. Measurement: 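Microscope images give a droplet-to-nucleus area ratio, taken as log and converted to a screen-wide B-score; higher values mean greater lipid storage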. Scale: droplet/nuclear area B-score: higher = more stored lipid (overstorage).
The screen tested about 17,000 reagents; shown is a random part of those with a known target gene and a result. 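Each column is one replicate's B-score; the combined score over replicates was not deposited, so single values may mislead.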 Reagents against one gene are numbered here. Not all columns of the deposit are shown. Reagent sequences are not shown.

CG9609 (GeneID 32663) | droplet/nuclear area B-score, replicate 1: 0.147
tbc (GeneID 318059) #1 | droplet/nuclear area B-score, replicate 1: -0.595
tbc (GeneID 318059) #2 | droplet/nuclear area B-score, replicate 1: 0.0948
CG17217 (GeneID 34644) | droplet/nuclear area B-score, replicate 1: -1.7
CG9297 (GeneID 41688) | droplet/nuclear area B-score, replicate 1: 6.92
CG32432 (GeneID 40310) #1 | droplet/nuclear area B-score, replicate 1: -1
CG32432 (GeneID 40310) #2 | droplet/nuclear area B-score, replicate 1: 1.83
CG32432 (GeneID 40310) #3 | droplet/nuclear area B-score, replicate 1: -0.00875
CG10909 (GeneID 41581) | droplet/nuclear area B-score, replicate 1: 0.176
lili (GeneID 42956) | droplet/nuclear area B-score, replicate 1: -3.28
tipE (GeneID 38504) | droplet/nuclear area B-score, replicate 1: 0.483
CG14130 (GeneID 39335) | droplet/nuclear area B-score, replicate 1: 0.739
CG2993 (GeneID 40924) #1 | droplet/nuclear area B-score, replicate 1: 2.32
CG2993 (GeneID 40924) #2 | droplet/nuclear area B-score, replicate 1: 3.24
Kul (GeneID 43501) | droplet/nuclear area B-score, replicate 1: -1.46
CG10345 (GeneID 42017) | droplet/nuclear area B-score, replicate 1: 0.731
SCAR (GeneID 34519) | droplet/nuclear area B-score, replicate 1: -1.61
CG10353 (GeneID 32148) | droplet/nuclear area B-score, replicate 1: 1.48
CG14297 (GeneID 42260) | droplet/nuclear area B-score, replicate 1: -1.44
lig (GeneID 35771) #1 | droplet/nuclear area B-score, replicate 1: -1.28
lig (GeneID 35771) #2 | droplet/nuclear area B-score, replicate 1: -0.593
CG13186 (GeneID 36294) | droplet/nuclear area B-score, replicate 1: -2.45
spo (GeneID 38631) | droplet/nuclear area B-score, replicate 1: -0.505
GatB (GeneID 42861) | droplet/nuclear area B-score, replicate 1: 1.68
CG11841 (GeneID 43430) | droplet/nuclear area B-score, replicate 1: -0.997
Sras (GeneID 44002) | droplet/nuclear area B-score, replicate 1: -1.57
mge (GeneID 38459) | droplet/nuclear area B-score, replicate 1: 2.38
Dhdds (GeneID 31708) | droplet/nuclear area B-score, replicate 1: 0.555
Ubc7 (GeneID 44054) | droplet/nuclear area B-score, replicate 1: 2.29
CG30283 (GeneID 37454) | droplet/nuclear area B-score, replicate 1: 0.241
Rpn8 (GeneID 37894) | droplet/nuclear area B-score, replicate 1: 0.905
Sgs1 (GeneID 33701) | droplet/nuclear area B-score, replicate 1: 1.09
CG5391 (GeneID 42611) | droplet/nuclear area B-score, replicate 1: -0.136
Gale (GeneID 38076) | droplet/nuclear area B-score, replicate 1: 3.43
CG3556 (GeneID 31380) | droplet/nuclear area B-score, replicate 1: -1.01
CG12990 (GeneID 32747) | droplet/nuclear area B-score, replicate 1: -2.8
nmdyn-D6 (GeneID 32396) | droplet/nuclear area B-score, replicate 1: 0.282
Atg9 (GeneID 36821) | droplet/nuclear area B-score, replicate 1: 0.065
PH4alphaNE3 (GeneID 326114) | droplet/nuclear area B-score, replicate 1: 1.05
Ir94a (GeneID 318610) | droplet/nuclear area B-score, replicate 1: -0.425

Already shown: entries from further up.
CG32432 (GeneID 40310) #1 | droplet/nuclear area B-score, replicate 1: -1
CG32432 (GeneID 40310) #2 | droplet/nuclear area B-score, replicate 1: 1.83
CG32432 (GeneID 40310) #3 | droplet/nuclear area B-score, replicate 1: -0.00875
CG10909 (GeneID 41581) | droplet/nuclear area B-score, replicate 1: 0.176
lili (GeneID 42956) | droplet/nuclear area B-score, replicate 1: -3.28
